{"sequences": {"note": "Chains of the proteins cited; added tags and fusions are not shown. Lines headed by an entry give the natural chain unless they say otherwise; changes in a name come on top.", "UniProt Q9JKP8": "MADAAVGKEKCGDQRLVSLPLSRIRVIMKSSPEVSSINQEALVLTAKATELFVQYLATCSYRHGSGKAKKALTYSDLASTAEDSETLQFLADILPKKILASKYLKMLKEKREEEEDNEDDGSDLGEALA", "UniProt Q9QWY8": "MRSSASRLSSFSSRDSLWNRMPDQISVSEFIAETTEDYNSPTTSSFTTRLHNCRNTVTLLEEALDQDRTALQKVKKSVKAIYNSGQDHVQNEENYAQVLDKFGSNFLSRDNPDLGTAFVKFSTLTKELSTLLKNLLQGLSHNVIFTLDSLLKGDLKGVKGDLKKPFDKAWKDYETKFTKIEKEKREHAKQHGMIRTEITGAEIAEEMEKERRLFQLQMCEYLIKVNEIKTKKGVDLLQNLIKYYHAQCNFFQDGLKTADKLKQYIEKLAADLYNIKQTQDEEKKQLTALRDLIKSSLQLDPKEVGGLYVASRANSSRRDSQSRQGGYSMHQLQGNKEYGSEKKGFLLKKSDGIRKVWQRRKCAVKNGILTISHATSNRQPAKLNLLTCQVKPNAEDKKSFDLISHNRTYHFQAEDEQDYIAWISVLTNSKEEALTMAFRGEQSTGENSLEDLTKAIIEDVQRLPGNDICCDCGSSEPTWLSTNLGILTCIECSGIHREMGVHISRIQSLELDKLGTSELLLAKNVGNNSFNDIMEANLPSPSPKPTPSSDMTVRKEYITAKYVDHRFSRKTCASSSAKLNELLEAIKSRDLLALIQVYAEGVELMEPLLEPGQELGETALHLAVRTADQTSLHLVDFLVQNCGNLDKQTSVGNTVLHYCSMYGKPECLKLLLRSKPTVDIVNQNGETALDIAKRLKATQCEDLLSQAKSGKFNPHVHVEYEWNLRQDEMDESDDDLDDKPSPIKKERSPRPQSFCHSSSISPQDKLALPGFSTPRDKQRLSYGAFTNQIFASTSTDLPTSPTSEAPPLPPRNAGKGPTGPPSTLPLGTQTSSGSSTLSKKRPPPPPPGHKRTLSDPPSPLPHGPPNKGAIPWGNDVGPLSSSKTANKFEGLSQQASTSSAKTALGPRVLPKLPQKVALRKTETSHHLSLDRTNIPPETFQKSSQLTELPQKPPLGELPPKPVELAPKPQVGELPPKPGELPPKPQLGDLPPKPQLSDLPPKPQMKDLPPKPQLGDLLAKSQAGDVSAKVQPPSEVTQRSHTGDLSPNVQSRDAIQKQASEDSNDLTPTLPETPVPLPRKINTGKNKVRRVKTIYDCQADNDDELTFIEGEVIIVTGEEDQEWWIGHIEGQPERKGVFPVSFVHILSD", "UniProt Q9EST4": "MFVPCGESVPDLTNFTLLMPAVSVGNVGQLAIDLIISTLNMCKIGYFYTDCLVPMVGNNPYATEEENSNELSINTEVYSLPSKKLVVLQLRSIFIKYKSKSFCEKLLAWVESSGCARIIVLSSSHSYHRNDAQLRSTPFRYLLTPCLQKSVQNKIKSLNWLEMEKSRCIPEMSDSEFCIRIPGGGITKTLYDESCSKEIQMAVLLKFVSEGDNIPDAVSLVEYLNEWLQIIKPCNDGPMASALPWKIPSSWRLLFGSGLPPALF", "UniProt Q9JJD0": "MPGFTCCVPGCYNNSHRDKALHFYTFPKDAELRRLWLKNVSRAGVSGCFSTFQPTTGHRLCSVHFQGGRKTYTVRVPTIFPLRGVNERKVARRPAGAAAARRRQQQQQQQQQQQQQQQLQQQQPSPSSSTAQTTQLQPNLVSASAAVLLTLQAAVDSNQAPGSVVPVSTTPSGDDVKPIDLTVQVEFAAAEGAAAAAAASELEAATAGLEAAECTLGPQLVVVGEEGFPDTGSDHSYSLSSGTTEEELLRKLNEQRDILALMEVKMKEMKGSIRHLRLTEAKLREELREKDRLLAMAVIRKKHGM", "UniProt Q9JLB0": "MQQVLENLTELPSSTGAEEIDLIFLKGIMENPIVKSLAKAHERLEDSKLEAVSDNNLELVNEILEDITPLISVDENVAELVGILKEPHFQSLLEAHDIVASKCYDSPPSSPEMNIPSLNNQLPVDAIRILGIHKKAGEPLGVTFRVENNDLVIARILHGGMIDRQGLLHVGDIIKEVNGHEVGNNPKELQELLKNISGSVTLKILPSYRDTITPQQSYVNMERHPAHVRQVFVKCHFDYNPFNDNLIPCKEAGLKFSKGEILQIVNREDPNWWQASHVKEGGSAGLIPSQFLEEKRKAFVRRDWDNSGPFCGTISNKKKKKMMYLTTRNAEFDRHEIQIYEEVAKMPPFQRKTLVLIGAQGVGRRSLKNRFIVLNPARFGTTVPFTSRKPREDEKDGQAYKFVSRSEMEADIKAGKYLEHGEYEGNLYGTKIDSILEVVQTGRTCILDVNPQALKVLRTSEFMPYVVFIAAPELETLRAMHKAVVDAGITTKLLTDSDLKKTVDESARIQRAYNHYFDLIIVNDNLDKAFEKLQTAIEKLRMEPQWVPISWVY", "UniProt Q9QXA7": "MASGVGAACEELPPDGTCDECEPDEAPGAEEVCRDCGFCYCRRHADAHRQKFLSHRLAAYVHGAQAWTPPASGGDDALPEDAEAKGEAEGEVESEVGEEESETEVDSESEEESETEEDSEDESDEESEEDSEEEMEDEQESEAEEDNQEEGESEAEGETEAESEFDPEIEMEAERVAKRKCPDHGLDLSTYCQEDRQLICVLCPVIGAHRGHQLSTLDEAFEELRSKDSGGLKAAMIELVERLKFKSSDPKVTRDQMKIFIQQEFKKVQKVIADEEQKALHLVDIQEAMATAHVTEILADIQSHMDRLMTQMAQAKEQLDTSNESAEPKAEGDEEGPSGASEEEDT", "UniProt Q9JI39": "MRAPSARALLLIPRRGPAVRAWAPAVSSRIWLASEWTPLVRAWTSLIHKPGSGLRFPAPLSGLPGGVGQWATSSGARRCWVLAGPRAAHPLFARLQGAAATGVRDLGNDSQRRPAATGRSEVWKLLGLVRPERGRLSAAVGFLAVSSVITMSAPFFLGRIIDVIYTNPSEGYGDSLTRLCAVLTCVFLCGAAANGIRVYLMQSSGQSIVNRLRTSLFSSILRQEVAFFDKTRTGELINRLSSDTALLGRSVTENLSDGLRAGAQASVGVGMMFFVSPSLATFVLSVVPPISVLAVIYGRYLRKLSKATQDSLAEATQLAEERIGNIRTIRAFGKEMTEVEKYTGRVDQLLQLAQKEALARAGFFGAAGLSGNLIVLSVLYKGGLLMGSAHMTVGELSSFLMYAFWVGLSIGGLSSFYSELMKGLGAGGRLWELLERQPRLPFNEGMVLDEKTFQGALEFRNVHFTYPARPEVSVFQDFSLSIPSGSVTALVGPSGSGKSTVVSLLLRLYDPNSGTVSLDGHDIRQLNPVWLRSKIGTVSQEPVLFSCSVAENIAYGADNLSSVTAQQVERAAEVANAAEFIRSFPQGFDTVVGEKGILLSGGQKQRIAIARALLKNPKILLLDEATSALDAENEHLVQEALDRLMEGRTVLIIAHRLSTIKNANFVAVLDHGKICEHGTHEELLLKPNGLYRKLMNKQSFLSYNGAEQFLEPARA", "UniProt Q9QWR8": "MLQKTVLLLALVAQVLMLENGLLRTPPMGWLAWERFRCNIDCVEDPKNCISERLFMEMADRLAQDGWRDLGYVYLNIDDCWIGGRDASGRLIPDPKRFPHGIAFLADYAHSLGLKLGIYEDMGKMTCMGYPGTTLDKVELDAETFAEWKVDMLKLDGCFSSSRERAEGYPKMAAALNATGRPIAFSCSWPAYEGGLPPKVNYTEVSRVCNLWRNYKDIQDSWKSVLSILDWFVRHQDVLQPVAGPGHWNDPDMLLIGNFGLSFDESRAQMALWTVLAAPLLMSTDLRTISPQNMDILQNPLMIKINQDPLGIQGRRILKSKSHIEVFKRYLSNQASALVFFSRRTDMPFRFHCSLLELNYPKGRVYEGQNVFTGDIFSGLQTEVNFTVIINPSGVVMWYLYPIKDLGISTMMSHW", "UniProt Q9JIA7": "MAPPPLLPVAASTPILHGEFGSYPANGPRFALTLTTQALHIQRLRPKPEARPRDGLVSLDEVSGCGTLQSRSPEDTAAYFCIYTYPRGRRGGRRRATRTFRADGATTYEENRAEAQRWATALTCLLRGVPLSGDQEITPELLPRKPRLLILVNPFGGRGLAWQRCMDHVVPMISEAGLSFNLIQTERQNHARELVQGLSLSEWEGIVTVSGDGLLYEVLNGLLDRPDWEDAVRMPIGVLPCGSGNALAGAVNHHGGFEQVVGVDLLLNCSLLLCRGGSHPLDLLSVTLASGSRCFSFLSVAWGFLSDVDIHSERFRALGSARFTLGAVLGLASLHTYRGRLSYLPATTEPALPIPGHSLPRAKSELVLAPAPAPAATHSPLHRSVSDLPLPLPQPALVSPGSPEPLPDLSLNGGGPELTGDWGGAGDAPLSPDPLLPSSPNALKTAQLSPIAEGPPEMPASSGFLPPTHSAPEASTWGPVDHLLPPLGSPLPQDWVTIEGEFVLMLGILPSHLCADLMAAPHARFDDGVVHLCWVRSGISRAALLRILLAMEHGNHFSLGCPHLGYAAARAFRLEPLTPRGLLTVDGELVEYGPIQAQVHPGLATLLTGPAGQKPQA", "UniProt Q9JKX6": "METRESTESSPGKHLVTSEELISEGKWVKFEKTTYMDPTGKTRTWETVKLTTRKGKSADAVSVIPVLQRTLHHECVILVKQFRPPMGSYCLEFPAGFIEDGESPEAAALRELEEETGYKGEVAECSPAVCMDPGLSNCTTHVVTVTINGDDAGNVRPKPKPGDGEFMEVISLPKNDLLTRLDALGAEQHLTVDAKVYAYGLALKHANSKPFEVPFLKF", "UniProt Q9ESC8": "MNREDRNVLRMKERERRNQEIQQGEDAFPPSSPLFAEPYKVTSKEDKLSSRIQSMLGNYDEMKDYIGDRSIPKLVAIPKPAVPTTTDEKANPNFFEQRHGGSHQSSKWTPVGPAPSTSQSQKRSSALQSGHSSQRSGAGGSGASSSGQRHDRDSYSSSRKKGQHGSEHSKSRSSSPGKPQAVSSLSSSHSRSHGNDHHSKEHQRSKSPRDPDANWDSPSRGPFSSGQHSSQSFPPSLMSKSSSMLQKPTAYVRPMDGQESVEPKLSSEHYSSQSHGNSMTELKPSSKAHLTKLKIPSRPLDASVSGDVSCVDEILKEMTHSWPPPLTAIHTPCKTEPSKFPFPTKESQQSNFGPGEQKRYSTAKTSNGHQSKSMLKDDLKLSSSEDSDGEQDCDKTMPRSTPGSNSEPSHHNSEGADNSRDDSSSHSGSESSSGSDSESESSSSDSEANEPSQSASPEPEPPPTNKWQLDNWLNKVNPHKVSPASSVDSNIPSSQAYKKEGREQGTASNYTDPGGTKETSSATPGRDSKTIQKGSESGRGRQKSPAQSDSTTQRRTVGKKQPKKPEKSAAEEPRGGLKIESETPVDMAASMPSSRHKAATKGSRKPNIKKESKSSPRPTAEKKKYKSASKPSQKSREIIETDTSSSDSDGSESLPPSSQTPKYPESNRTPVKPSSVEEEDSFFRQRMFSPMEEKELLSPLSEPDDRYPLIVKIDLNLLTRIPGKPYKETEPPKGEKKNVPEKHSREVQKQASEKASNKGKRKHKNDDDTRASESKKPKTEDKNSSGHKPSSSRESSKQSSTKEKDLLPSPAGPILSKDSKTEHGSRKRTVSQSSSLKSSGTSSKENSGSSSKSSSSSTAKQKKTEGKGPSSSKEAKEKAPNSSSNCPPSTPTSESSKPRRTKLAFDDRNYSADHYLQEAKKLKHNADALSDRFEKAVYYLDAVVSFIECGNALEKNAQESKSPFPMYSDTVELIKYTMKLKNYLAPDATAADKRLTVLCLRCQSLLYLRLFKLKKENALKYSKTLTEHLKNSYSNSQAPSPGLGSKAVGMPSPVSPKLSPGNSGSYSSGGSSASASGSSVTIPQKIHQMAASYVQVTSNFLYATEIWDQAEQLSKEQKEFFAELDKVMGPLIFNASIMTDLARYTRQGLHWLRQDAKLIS", "UniProt Q9JJC6": "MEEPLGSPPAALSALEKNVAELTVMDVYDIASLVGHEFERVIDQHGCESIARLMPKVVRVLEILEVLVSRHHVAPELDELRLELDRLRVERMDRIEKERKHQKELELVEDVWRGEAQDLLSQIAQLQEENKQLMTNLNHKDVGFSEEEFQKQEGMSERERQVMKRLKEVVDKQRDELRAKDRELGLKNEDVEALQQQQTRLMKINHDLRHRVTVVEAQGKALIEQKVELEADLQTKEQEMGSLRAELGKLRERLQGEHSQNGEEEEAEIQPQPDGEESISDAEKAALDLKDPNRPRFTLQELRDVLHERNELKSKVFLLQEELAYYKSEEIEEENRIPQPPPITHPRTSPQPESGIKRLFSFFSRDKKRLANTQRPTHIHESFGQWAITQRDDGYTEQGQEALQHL", "UniProt Q9JJZ4": "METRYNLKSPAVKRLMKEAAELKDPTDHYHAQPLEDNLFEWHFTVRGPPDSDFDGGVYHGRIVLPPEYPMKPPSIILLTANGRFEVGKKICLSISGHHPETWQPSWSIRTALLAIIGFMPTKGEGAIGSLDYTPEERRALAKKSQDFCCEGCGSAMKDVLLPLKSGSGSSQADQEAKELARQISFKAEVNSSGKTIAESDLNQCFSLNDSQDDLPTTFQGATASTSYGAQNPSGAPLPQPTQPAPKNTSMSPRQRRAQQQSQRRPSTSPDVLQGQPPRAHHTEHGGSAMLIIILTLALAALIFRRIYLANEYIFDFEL"}, "source": "the supplement of paper PMC12819154", "about": "“High-throughput peptide-centric local stability assay extends protein–ligand identification to membrane proteins, tissues and bacteria” (Nature Structural & Molecular Biology, 2025)", "note": "The list shows a part of the results. Most values lie at the level of the controls, where differences are scatter.", "data": [{"compound": "CN[C@@H]1C[C@H]2O[C@@](C)([C@@H]1OC)n1c3ccccc3c3c4c(c5c6ccccc6n2c5c31)C(=O)NC4 [staurosporine]", "assay": "log2 fold change of tryptic peptide abundance, ligand vs vehicle (limited proteolysis) (log2 ratio); higher = more trypsin-susceptible (destabilized)", "settings": "ligand concentration: 20 uM; sample: mouse liver crude lysate; replicate design: treated separately", "values": [{"target": "UniProt Q9JKP8 (peptide sequence: LVSLPLSR, peptide start residue: 16)", "log2 fold change": 0.145}, {"target": "UniProt Q9ESJ4 (peptide sequence: RILTEEEASPQCQMDR, peptide start residue: 681)", "log2 fold change": 0.458}, {"target": "UniProt Q9JHJ0 (peptide sequence: DRDDYVPYTGEK, peptide start residue: 82)", "log2 fold change": -0.257}, {"target": "UniProt Q9QWY8 (peptide sequence: NGILTISHATSNR, peptide start residue: 366)", "log2 fold change": 0.331}, {"target": "UniProt Q9QWG7 (peptide sequence: EEHPLLYLYYEELKQNPKK, peptide start residue: 185)", "log2 fold change": -0.196}, {"target": "UniProt Q9JL15 (peptide sequence: ENIQKPGK, peptide start residue: 172)", "log2 fold change": 0.102}, {"target": "UniProt Q9ET26 (peptide sequence: DGAAQSAKPASETDPLSR, peptide start residue: 10)", "log2 fold change": -0.123}, {"target": "UniProt Q9JI99 (peptide sequence: LSSIPCHDIR, peptide start residue: 383)", "log2 fold change": 0.36}, {"target": "UniProt Q9EST4 (peptide sequence: TLYDESCSK, peptide start residue: 189)", "log2 fold change": 0.185}, {"target": "UniProt Q9JJD0 (peptide sequence: AGVSGCFSTFQPTTGHR, peptide start residue: 43)", "log2 fold change": 0.478}, {"target": "UniProt Q9JIF0 (peptide sequence: TGEEIFGTIGMRPNAK, peptide start residue: 327)", "log2 fold change": 0.373}, {"target": "UniProt Q9JLB0 (peptide sequence: KAGEPLGVTFR, peptide start residue: 135)", "log2 fold change": 0.272}, {"target": "UniProt Q9JKF6 (peptide sequence: KHVYGNGYSK, peptide start residue: 392)", "log2 fold change": -0.575}, {"target": "UniProt Q9JLF6 (peptide sequence: SGENIPMAYR, peptide start residue: 803)", "log2 fold change": -0.147}, {"target": "UniProt Q9QUK4 (peptide sequence: LFVPTGDGIHQVAK, peptide start residue: 1284)", "log2 fold change": 0.378}, {"target": "UniProt Q9QXA7 (peptide sequence: LMTQMAQAK, peptide start residue: 308)", "log2 fold change": 0.0365}, {"target": "UniProt Q9JI39 (peptide sequence: GILLSGGQK, peptide start residue: 596)", "log2 fold change": -0.479}, {"target": "UniProt Q9JMD1 (peptide sequence: YTHYYGK, peptide start residue: 632)", "log2 fold change": -0.326}, {"target": "UniProt Q9JJF3 (peptide sequence: RETLNPPGR, peptide start residue: 234)", "log2 fold change": 0.464}, {"target": "UniProt Q9QWR8 (peptide sequence: FPHGIAFLADYAHSLGLK, peptide start residue: 98)", "log2 fold change": 0.742}, {"target": "UniProt Q9JIA7 (peptide sequence: GGSHPLDLLSVTLASGSR, peptide start residue: 276)", "log2 fold change": 0.571}, {"target": "UniProt Q9JKX6 (peptide sequence: TLHHECVILVK, peptide start residue: 70)", "log2 fold change": -0.138}, {"target": "UniProt Q9QUG2 (peptide sequence: EKDNFKDDLLLR, peptide start residue: 6)", "log2 fold change": -0.413}, {"target": "UniProt Q9JHD2 (peptide sequence: SRYYVTRK, peptide start residue: 777)", "log2 fold change": 0.0697}, {"target": "UniProt Q9JJT9 (peptide sequence: DIFYVENQKEYENKK, peptide start residue: 297)", "log2 fold change": 0.597}, {"target": "UniProt Q9JIS5 (peptide sequence: MADGAPLAGVR, peptide start residue: 113)", "log2 fold change": -0.138}, {"target": "UniProt Q9ESJ0 (peptide sequence: LTASSTPPALDRK, peptide start residue: 1116)", "log2 fold change": -0.781}, {"target": "UniProt Q9ESC8 (peptide sequence: AVGMPSPVSPK, peptide start residue: 1047)", "log2 fold change": 0.476}, {"target": "UniProt Q9ES74 (peptide sequence: ASCLLDGVPVALK, peptide start residue: 51)", "log2 fold change": -0.172}, {"target": "UniProt Q9JJC6 (peptide sequence: TSPQPESGIKR, peptide start residue: 348)", "log2 fold change": -0.16}, {"target": "UniProt Q9JJZ4 (peptide sequence: SGSGSSQADQEAK, peptide start residue: 165)", "log2 fold change": -0.641}]}]}
